Consider 3 substances from publication PMC10907597.

Sequences of proteins named here, by UniProt entry; tags and fusion partners are left off. A change or cut given only in a name is not applied to a line headed by its entry. A line that says so, or that is headed by a name, gives the form on record, which may keep a tag or linker. Residues count along the entry.
UniProt O75159: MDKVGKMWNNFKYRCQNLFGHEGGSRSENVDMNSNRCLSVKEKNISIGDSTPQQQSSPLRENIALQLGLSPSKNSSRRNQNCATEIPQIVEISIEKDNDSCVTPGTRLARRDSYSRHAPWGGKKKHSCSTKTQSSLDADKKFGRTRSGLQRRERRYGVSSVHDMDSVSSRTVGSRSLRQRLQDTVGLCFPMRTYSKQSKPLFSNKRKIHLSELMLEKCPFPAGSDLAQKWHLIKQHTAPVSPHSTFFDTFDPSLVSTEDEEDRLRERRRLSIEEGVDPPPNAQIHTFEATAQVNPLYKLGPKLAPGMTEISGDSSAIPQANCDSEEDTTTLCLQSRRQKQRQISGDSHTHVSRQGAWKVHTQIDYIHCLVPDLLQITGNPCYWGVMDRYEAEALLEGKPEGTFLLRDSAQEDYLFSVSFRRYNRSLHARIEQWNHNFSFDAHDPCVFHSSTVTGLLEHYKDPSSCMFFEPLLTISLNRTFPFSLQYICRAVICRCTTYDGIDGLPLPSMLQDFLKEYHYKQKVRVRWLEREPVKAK
SOCS5 N-terminal domain deletion mutant (△N): residues 381-536 of O75159
SOCS5 SOCS Box domain deletion mutant (△SB) (O75159, form named): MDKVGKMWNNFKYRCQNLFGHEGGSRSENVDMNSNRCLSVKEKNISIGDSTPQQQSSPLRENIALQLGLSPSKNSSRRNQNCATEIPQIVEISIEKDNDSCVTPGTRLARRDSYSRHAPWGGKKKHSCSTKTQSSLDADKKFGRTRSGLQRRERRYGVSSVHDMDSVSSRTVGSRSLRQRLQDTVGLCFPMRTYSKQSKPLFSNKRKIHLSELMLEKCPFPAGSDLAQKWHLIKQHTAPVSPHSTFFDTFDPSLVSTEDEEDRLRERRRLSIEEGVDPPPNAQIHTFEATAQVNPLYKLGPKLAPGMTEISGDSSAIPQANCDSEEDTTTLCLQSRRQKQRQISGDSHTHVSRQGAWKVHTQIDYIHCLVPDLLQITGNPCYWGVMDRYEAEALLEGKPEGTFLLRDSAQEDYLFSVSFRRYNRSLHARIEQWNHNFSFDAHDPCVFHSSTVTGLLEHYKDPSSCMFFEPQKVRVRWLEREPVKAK
UniProt P38159: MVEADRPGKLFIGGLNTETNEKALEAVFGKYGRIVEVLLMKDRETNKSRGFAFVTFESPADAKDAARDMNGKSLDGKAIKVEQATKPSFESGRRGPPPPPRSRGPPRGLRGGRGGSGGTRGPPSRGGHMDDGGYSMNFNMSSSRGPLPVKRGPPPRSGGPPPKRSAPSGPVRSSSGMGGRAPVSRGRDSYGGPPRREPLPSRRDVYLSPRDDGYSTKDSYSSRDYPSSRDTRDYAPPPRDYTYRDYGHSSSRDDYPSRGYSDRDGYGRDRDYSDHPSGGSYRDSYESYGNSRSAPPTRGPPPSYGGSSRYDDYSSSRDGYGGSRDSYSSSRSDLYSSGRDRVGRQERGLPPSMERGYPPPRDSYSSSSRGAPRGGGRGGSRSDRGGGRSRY

In assay [1] the target is SOCS5-HA (suppressor of cytokine signaling 5, HA-tagged) (UniProt O75159). As to the kind of experiment: co-IP; NP-40 lysis buffer; anti-HA or anti-c-Myc magnetic beads with lysate overnight at 4 °C; IgG control; Western blot; 293T and Huh7 cells (cells of the mutant panels of Fig. 5 not stated). (In general: Immunoblotting shows a protein as a band on a membrane.)
For assay [2], the target named is SOCS5 SOCS Box domain deletion mutant (△SB) (UniProt O75159). The assay is described as above.
The target in assay [3] is SOCS5 N-terminal domain deletion mutant (△N) (UniProt O75159). The assay is described as above.
A further assay addresses SOCS5-GST (UniProt O75159). The experiment in a line: pull-down; GST pulldown of RBMX-myc with SOCS5-GST, called in vitro; conditions not given.
The target in assay [4] is RBMX-Myc (RNA binding motif protein X-linked, Myc-tagged) (UniProt P38159). As to the kind of experiment: co-IP; NP-40 lysis buffer; anti-HA or anti-c-Myc magnetic beads with lysate overnight at 4 °C; IgG control; Western blot; 293T and Huh7 cells (cells of the mutant panels of Fig. 5 not stated).

These are yes or no findings as the source states them, for the method shown. Binding seen in cells or lysates may run through a third protein. Some binding calls cover weakened binding; strength is not graded here.

For “RBMX (RNA binding motif protein X-linked), endogenous (from UniProt P38159 1-391)”, the binding result in assay [1] is “binds”.
As to “RBMX-Myc (RNA binding motif protein X-linked, Myc-tagged) (from UniProt P38159 1-391)”, the binding entry (in assay [1]; in assay [2]; in assay [3]; with SOCS5-GST) was “binds” each time.
On to “SOCS5-HA (suppressor of cytokine signaling 5, HA-tagged) (from UniProt O75159 1-536)”, for which, in assay [4], the binding entry is listed as “binds”.
